Measurements published in PubChem BioAssay AID504834 (National Center for Advancing Translational Sciences (NCATS), 2011).
Among all 320,000 compounds or so, about 22,000 (6.9%) were called active. The shares of active, inactive and inconclusive entries below differ from those in the screen. The call rests on the fitted dose curve; in most records, active means well fitted inhibition curve with a large enough effect; inconclusive means small, poorly fitted or top-dose-only effect, or another doubt; inactive means no such curve, though single readings can be large or run the other way. A potency beside an inconclusive call is a rough fit, not a confirmed value.

assay: Primary qHTS for delayed death inhibitors of the malarial parasite plastid, 96 hour incubation; settings: P. falciparum luciferase reporter growth; series mostly up to 28.7 µM
Procedure, shortened: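 Cell-based qHTS: luciferase-tagged P. falciparum in erythrocytes (2% hematocrit, 0.05% parasitemia final) incubated with compounds for 96 hours, 37 C, 5% CO2; luciferase detection reagent then added and luminescence measured.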
On the % scale 0 is the no-effect control and ±100 the full control effect; potency means the concentration at half of the fitted maximal effect.

| SMILES | activity change, negative = inhibition | Potency |
| --- | --- | --- |
| O=C(OCCN1C(=O)c2ccccc2C1=O)c1cccc(OC(F)F)c1 | inactive: 24.4% [at 5.75 µM] |  |
| CC(=O)c1ccc(NC(=S)Nc2ccn(Cc3ccc(Br)cc3)n2)cc1 |  | inconclusive: 3.29 µM [inhibitor, partial curve, poor fit] |
| COC(=O)c1c(NC(=O)CN2CCN(S(=O)(=O)c3ccccc3)CC2)sc2c1CCC(C)C2 (configuration not stated) |  | inconclusive: 11.7 µM [inhibitor, single point] |
| COc1ccc(C(=O)NCC(=O)N/N=C/c2ccc([N+](=O)[O-])o2)cc1OC |  | active: 1.85 µM |
| CC(OC(=O)c1ccccc1NS(=O)(=O)c1cccc(N)c1)C(=O)N(C)Cc1ccccc1 (configuration not stated) |  | inconclusive: 11.7 µM [inhibitor, partial curve] |
| COc1ccc(N(Cc2ccccc2)S(=O)(=O)c2ccc(C)cc2)cc1 |  | inconclusive: 13.1 µM [inhibitor, partial curve, poor fit] |
| O=C(Nc1cccc(Cl)c1Cl)c1ccccc1OCC(=O)N1CCOCC1 |  | inactive |
| CCN(C(=O)COC(=O)c1[nH]c(C)c(C(C)=O)c1C)c1c(N)n(Cc2ccccc2)c(=O)[nH]c1=O |  | inconclusive: 18.5 µM [inhibitor, single point] |
| CCOc1ccc(-n2c(SCC(=O)Nc3ccc(OC)cc3)nc3sc4c(c3c2=O)CCN(C)C4)cc1 |  | inconclusive: 7.38 µM [inhibitor, partial curve] |
| CCCCN1C(=S)NC[C@@H]1C(C)CC (some centres not stated) |  | inconclusive: 9.28 µM [inhibitor, single point] |
| Cc1cccc(C)c1OCC(O)Cn1nnc2ccccc21 (configuration not stated) |  | inactive |
| O=S(=O)(c1cccc(Cl)c1)N1CN(CC2CCCO2)c2nc3ccccc3nc21 (configuration not stated) |  | inconclusive: 4.15 µM [inhibitor, partial curve] |
| O=C(Nc1ccc(C(=O)N2CCOCC2)cc1)c1cccc([N+](=O)[O-])c1 |  | inconclusive: 3.29 µM [inhibitor, partial curve, poor fit] |
| CCc1cc2cc(C)ccc2nc1SCC(=O)N1CCN(C(=O)c2ccco2)CC1 |  | inconclusive: 11.7 µM [inhibitor, single point] |
| O=C(COc1ccc(Br)cc1)NCCCNC(=O)c1cnccn1 |  | inconclusive: 0.0738 µM [inhibitor, full curve, poor fit] |
| O=C(NC1CCN(c2ncccn2)CC1)c1ccccc1Cl |  | active: 10.4 µM |
| O=S(=O)(NC1CCCCC1)c1cccs1 |  | inactive |
| COc1c2occc2cc2ccc(=O)oc12 |  | inconclusive: 9.53 µM [inhibitor, partial curve] |
| Cc1ccc(-n2cc(-c3ccccc3)[nH]c2=O)cc1F |  | inconclusive: 2.94 µM [inhibitor, full curve, poor fit] |
| O=C(Oc1c(Cl)cc(Cl)c2cccnc12)N1CCCCC1 |  | active: 5.22 µM |
| O=C(CSc1ccc(-c2cccnc2)nn1)Nc1ccc(F)cc1F |  | inconclusive: 18.5 µM [inhibitor, single point] |
| O=C(CSc1nc2ccc([N+](=O)[O-])cc2s1)NC1CCS(=O)(=O)C1 (configuration not stated) |  | inconclusive: 0.522 µM [inhibitor, partial curve, poor fit] |
| CCN(C(=O)Nc1cccc(Cl)c1)c1ccccc1 |  | inactive |

Another view of six compounds above.
SMILES,"activity change, negative = inhibition",Potency
COc1ccc(C(=O)NCC(=O)N/N=C/c2ccc([N+](=O)[O-])o2)cc1OC,,active: 1.85 µM
CCOc1ccc(-n2c(SCC(=O)Nc3ccc(OC)cc3)nc3sc4c(c3c2=O)CCN(C)C4)cc1,,"inconclusive: 7.38 µM [inhibitor, partial curve]"
CCCCN1C(=S)NC[C@@H]1C(C)CC (some centres not stated),,"inconclusive: 9.28 µM [inhibitor, single point]"
COc1c2occc2cc2ccc(=O)oc12,,"inconclusive: 9.53 µM [inhibitor, partial curve]"
Cc1ccc(-n2cc(-c3ccccc3)[nH]c2=O)cc1F,,"inconclusive: 2.94 µM [inhibitor, full curve, poor fit]"
CCN(C(=O)Nc1cccc(Cl)c1)c1ccccc1,,inactive

Next structures:

| SMILES | activity change, negative = inhibition | Potency |
| --- | --- | --- |
| COc1ccc(OC)c(/C=N\NC(=O)c2cc3c(ccc4ccccc43)o2)c1 |  | inconclusive: 18.5 µM [inhibitor, partial curve, poor fit] |
| COc1ccc(/C=C2\SC(=S)N(CC3CCCO3)C2=O)cc1 (configuration not stated) |  | inactive |
| COc1ccc(N2CCN(C(=O)c3ccc(NS(=O)(=O)c4cccc(F)c4)cc3)CC2)cc1 |  | inconclusive: 16.5 µM [inhibitor, single point] |
| CCC(=O)Nc1cccc(NC(=S)NC(=O)c2cccc(C)c2)c1 |  | inactive |
| CN(C(=O)c1ccc(NC(=O)Cc2cccc(NC(=O)C3CCCN(C(=O)CCc4ccccc4)C3)c2)cc1)C1CCCC1 (configuration not stated) |  | inconclusive: 0.0033 µM [inhibitor, full curve, poor fit] |
| COc1ccccc1N(C(=O)CNS(=O)(=O)c1ccccc1)C(C(=O)NCc1ccco1)C(C)C (configuration not stated) |  | active: 5.22 µM |
| Cc1cc(O)c(C2(O)C(=O)Nc3cc(Br)ccc32)cc1C (configuration not stated) |  | inconclusive: 18.5 µM [inhibitor, single point] |
| O=C(Nc1ccccn1)c1csc2c1CCCC2 |  | inconclusive: 11.7 µM [inhibitor, single point] |
| O=C1NC(c2cccc([N+](=O)[O-])c2)Oc2ccccc21 (configuration not stated) |  | inconclusive: 9.28 µM [inhibitor, single point] |
| COc1ccc2c(c1OC)C(=O)N1C2SC(C)(C)[C@H]1C(=O)NCCCOC(C)C (some centres not stated) |  | inconclusive: 18.5 µM [inhibitor, single point] |
| CN1CCN(CCCNC(=O)c2ccc(/C=C3\Oc4ccccc4N(Cc4ccccc4F)C3=O)cc2)CC1 |  | inactive |
| C[C@H](NC(=O)C(c1ccccc1)c1ccccc1)c1ccccc1 |  | inconclusive: 18.5 µM [inhibitor, single point] |
| O=C1c2ccccc2C(=O)c2c1cccc2N1CCCC1 |  | inactive |
| O=C(NCCN1CCOCC1)c1ccc(Cl)cc1[N+](=O)[O-] |  | inconclusive: 0.0033 µM [inhibitor, full curve, poor fit] |
| COc1ccc(CNC(=O)CCc2c(C)nc3cc(-c4ccccc4OC)nn3c2C)cc1 |  | inconclusive: 1.85 µM [inhibitor, partial curve, poor fit] |
| O=[N+]([O-])c1cccc(S(=O)(=O)Nc2cccc(-c3ccc(N4CCCC4)nn3)c2)c1 |  | active: 6.57 µM |
| CC(C)c1ccc(N2C(=O)CC(Sc3nc4ccccc4o3)C2=O)cc1 (configuration not stated) |  | inconclusive: 4.15 µM [inhibitor, partial curve, poor fit] |
| N#Cc1c(NC(=O)COC(=O)C2CC3C=CC2C3)oc(-c2ccccc2)c1-c1ccccc1 (configuration not stated) |  | active: 9.28 µM |
| COc1ccc(CCNC(=O)c2cc3c(=O)n4ccccc4nc3n(CCCN3CCOCC3)c2=N)cc1OC |  | active: 2.08 µM |
| C=CCNC(=O)c1ccc(C(=O)c2ccccc2)cc1 |  | inactive |
| CC(C)NOC(=O)c1ccc(Cl)cc1 |  | inconclusive: 18.5 µM [inhibitor, single point] |
| CCCC(C(=O)OCC)P(=O)(c1ccccc1)c1ccccc1 (configuration not stated) |  | inconclusive: 0.262 µM [inhibitor, full curve] |
| CCn1c(SCC(=O)Nc2sc(C)c(C)c2C#N)nnc1C1CC1 |  | inactive |

| SMILES | activity change, negative = inhibition | Potency |
| --- | --- | --- |
| COc1ccc(-c2cc3c(=O)n(CC(=O)NCc4cccnc4)ncn3n2)cc1 |  | active: 14.7 µM |
| COc1ccccc1N1CCN(C(=O)c2ccc3c(Cl)c4c(nc3c2)CCCC4)CC1 |  | active: 11.7 µM |
| CC1CCN(c2ccc3nnc(CCC(=O)NCC(C)c4ccccc4)n3n2)CC1 (configuration not stated) |  | inconclusive: 11.7 µM [inhibitor, partial curve, poor fit] |
| CCOC(=O)C1CCN(C(=O)CCc2c(C)nc3cc(-c4ccc(OC)cc4OC)nn3c2C)CC1 |  | inconclusive: 9.28 µM [inhibitor, partial curve, poor fit] |
| CCCCNC(=O)c1ccc(-n2c(=S)[nH]c3ccccc3c2=O)cc1 |  | inactive |
| O=C1C2C3C=CC([C@@H]2C(=O)N1C1CC1)[C@H]1C(=O)N(C2CC2)C(=O)C31 (some centres not stated) |  | inactive |
| Cn1c(=O)c2sccc2n2c(CCCC(=O)NCCc3ccccc3)nnc12 |  | inconclusive: 6.57 µM [inhibitor, partial curve] |
| Cc1cccc(C(=O)N[C@H](C(=O)Nc2ncc(C)s2)C(C)C)c1 |  | inconclusive: 18.5 µM [inhibitor, single point] |
| Clc1cc(Cl)cc(C2=NCCC(c3ccccc3)O2)c1 (configuration not stated) |  | inactive |
| COc1ccc(-c2csc(Nc3ccc(S(N)(=O)=O)cc3)n2)cc1OC |  | inconclusive: 18.5 µM [inhibitor, single point] |
| O=C(NCc1cn(-c2ccccc2)nc1-c1ccccc1)c1ccc([N+](=O)[O-])cc1 |  | inconclusive: 14.7 µM [inhibitor, partial curve, poor fit] |
| NS(=O)(=O)c1ccc(N2C(=O)C3CC=CCC3C2=O)cc1 (configuration not stated) |  | inconclusive: 8.28 µM [inhibitor, partial curve, poor fit] |
| COc1ccc(NC(=O)NCCc2ccc(Cl)cc2)cc1OC |  | inconclusive: 0.104 µM [inhibitor, partial curve, poor fit] |
| COc1ccc(S(=O)(=O)N2CCOC23CCN(S(=O)(=O)c2cccs2)CC3)cc1 |  | inconclusive: 10.4 µM [inhibitor, single point] |
| O=C(NCCCc1ccccc1)C1CCN(S(=O)(=O)c2ccc(F)cc2)CC1 |  | inconclusive: 18.5 µM [inhibitor, single point] |
| N/C(=N\OC(=O)CCC1CCCC1)c1ccncc1 |  | inconclusive: 11.7 µM [inhibitor, partial curve, poor fit] |
| COc1ccc(NC(=O)Nc2cccnc2)c(OC)c1 | inactive: -41.9% [at 1.15 µM] |  |
| CCN(CC(=O)Nc1ccccc1OC)C(=O)c1ccc(NS(=O)(=O)c2ccc(C(C)=O)cc2)cc1 |  | inactive |
